This note sets out measurements from US20250197491A1.

Chains of the proteins cited; added tags and fusions are not shown. Lines headed by an entry give the natural chain unless they say otherwise; changes in a name come on top. Residues count along the entry.
UniProt Q8NHL6, residues 24-461: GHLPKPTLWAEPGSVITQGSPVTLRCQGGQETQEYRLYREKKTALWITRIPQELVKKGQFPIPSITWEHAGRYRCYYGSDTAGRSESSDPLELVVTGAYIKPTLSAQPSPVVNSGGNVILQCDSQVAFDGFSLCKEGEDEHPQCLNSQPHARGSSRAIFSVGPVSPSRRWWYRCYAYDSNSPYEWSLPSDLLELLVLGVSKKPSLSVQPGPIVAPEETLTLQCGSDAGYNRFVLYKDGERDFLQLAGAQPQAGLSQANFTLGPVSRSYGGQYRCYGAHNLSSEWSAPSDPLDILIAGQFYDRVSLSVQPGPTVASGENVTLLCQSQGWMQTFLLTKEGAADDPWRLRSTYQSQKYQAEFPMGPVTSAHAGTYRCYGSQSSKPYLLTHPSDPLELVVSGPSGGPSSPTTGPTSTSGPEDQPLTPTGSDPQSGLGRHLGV
UniProt Q8N6C8: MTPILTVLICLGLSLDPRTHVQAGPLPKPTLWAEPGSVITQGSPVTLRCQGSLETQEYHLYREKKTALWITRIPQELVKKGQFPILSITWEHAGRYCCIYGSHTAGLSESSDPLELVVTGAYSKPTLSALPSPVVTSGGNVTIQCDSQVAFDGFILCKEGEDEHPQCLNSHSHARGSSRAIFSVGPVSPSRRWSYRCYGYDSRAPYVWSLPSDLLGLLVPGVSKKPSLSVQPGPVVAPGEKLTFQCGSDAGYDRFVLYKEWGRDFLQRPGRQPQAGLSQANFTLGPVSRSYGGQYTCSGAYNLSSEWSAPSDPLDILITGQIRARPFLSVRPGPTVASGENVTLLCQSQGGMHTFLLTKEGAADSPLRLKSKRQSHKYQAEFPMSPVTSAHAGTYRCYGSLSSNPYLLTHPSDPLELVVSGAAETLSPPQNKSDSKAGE

No constants are given. Whether binding was seen depends on the method and setting. Some binding calls cover weakened binding; strength is not graded here.

In test [1] the target is human LILRB1 (coated on plates in the competition ELISA) (human) (UniProt Q8NHL6). Briefly: competition ELISA on coated human LILRB1; competitor 5 nM biotinylated Antibody 2.
The target in test [2] is Human full length LILRA3 (human) (UniProt Q8N6C8). In words: ELISA, antigen coated. (In general: In an ELISA, binding on a coated surface is turned into a signal by an enzyme label.)

B1: Antibody 2 (antibody, V domains shown)
VH: QVQLVESGGDLVKPGGSLRLSCAASGFTFRDYYMSWIRQAPGKGLEWVSYISPSGSTIFYADSVKGRFTISRDNAKNSLYLQMNSLRAEDTAVYYCAKDRVRLFDYWGQGTLVTVSS
VL: EIVLTQSPATLSLSPGERATLSCRASQSVSSSYLAWYQQKPGQAPRLLIYGASTRATGIPARFSGSGSGTDFTLTISRLEPEDFAVYYCQQRSNWPITFGQGTRLEIK
Turning to B1, in test [1], the binding result was “binds”.

B2: Reference Antibody 1 (anti-human LILRB1 Ab) (antibody, V domains shown)
VH: DVQLQGSGPGLVKPSETLSLTCSVTGYSITSGYYWNWIRQFPGKKLEWMGYISYDGSNNYNPSLKNRITISRDTSKNQFSLKLNSVTAADTATYYCAHGYSYYYAMDAWGQGTSVTVSS
VL: DIQMTQSPSSLSASVGDRVTITCRTSQDISNYLNWYQQKPGKAVKLLISYTSRLHSGVPSRFSGSGSGTDYTLTISSLQPEDFATYYCQQGNTLPTFGQGTKLEIK
On to B2, for which the binding result in test [2] is “no binding (tested: 10 nM)”.
